For one molecule, binding results are on record in PMC5815017.

The test concerns the target MipZ (Caulobacter crescentus). Put plainly: two-hybrid; bacterial two-hybrid assay in E. coli with T18-ParB.

Results are given in words; binding and its absence hold for the method and conditions named. A result given as binding can be weak or reduced; the word gives no strength. Tags and fused reporters may be left off the sequences shown.

B1: Caulobacter crescentus ParB fused to the T18 fragment of Bordetella pertussis adenylate cyclase (protein, UniProt B8GW30 1-304)
chain: MESVVVGEPGMSEGRRGLGRGLSALLGEVDAAPAQAPGEQLGGSREAPIEILQRNPDQPRRTFREEDLEDLSNSIREKGVLQPILVRPSPDTAGEYQIVAGERRWRAAQRAGLKTVPIMVRELDDLAVLEIGIIENVQRADLNVLEEALSYKVLMEKFERTQENIAQTIGKSRSHVANTMRLLALPDEVQSYLVSGELTAGHARAIAAAADPVALAKQIIEGGLSVRETEALARKAPNLSAGKSKGGRPPRVKDTDTQALESDLSSVLGLDVSIDHRGSTGTLTITYATLEQLDDLCNRLTRGI
For the molecule B1, the binding result is given as “binds”.
